Laboratory results as given in US20220298237A1 (KEIO UNIVERSITY, published 2022).

B1: BC-A8 (Fab) (Fab, V domains shown)
VH: QTVKESGGRLVTPGAPLTLTCTVSRFSLSSYAMTWVRQAPGKGLEWIGIINNDGSSSTWYASWVKGRFTISKTSTTMDLKMTSLTTEDTATYFCARGGTSGYDIWGPGTLVTVSL
VL: AQGLTQTPSPVSAAVGGTVTINCQSSPSVYKNYLSWYQQKPGQPPKLLIYGASTLASGVPSRFKGSGSGTQFTLTISDVQCDDAATYYCAGGYRGSSDIFAFGGGTEVVVK
B2: BC-A3 (Fab) (Fab, V domains shown)
VH: B1 VH with S55V
VL: B1 VL with G3V, S9A, P10S, G16R, P41S
B3: BC-A9 (Fab) (Fab, V domains shown)
VH: B1 VH with T2S, K4E, A15G, P16S, S55I, L110V
VL: B1 VL with S9A, P10S, P41S, V59A
B4: BC-B4 (Fab) (Fab, V domains shown)
VH: B1 VH with T2S, K4E, A15G, P16S, S55I, L110V
VL: B1 VL with Q2L, G3V, P27Q, S97G
B5: BC-C8 (Fab) (Fab, V domains shown)
VH: B1 VH with T2S, V3L, K4E, A15G, P16S, S55I, L110V
VL: B1 VL with Q2L, G3V
B6: BC-E1 (Fab) (Fab, V domains shown)
VH: B1 VH with T2S, T12A, A15T, T22A, R25G, S55R, L84P
VL: B1 VL with L4M, Q71R
B7: BC-E3 (Fab) (Fab, V domains shown)
VH: B1 VH with T2S, T12A, A15T, T22A, R25G, S55R, L84P
VL: B1 VL with L4M, Q71R
B8: BC-E4 (Fab) (Fab, V domains shown)
VH: B1 VH with T2S, T12A, A15T, T22A, R25G, S55R, L84P
VL: B1 VL with L4M, Q71R
B9: BC-E11 (Fab) (Fab, V domains shown)
VH: B1 VH with T2S, T12A, A15T, T22A, R25G, S55R, L84P
VL: B1 VL with L4M, Q71R
B10: BC-F2 (Fab) (Fab, V domains shown)
VH: B1 VH with T2S, T12A, A15T, T22A, R25G, S55R, L84P
VL: B1 VL with L4M, Q71R
B11: BC-F7 (Fab) (Fab, V domains shown)
VH: B1 VH with T2S, K4E, A15G, P16S, S55I, L110V
VL: B1 VL with Q2L, G3V, P27Q, S97G
B12: BC-G6 (Fab) (Fab, V domains shown)
VH: B1 VH with T2S, K4E, A15G, P16S, V23A, R25G, S30G, S55I
VL: B1 VL with Q2L, G3V, L4M
B13: BC-H4 (Fab) (Fab, V domains shown)
VH: B1 VH with T2Q, V3L, S55V, L115S
VL: B1 VL with Q2L, G3V, S97G
B14: SC-C7 (Fab) (Fab, V domains shown)
VH: B1 VH with S30G, G54I, S56G, L115S
VL: B1 VL with A1D, Q2V, G3V, L4M
B15: SC-D10 (Fab) (Fab, V domains shown)
VH: B1 VH with T2S, A15G, P16S, S55V
VL: B1 VL with Q2L, G3V, L4M, I21T, G51K, K64S
B16: SC-F6 (Fab) (Fab, V domains shown)
VH: B1 VH with T2S, S55I
VL: B1 VL with L4M, S9A, P10S, P41S
B17: SC-G8 (Fab) (Fab, V domains shown)
VH: B1 VH with T2S, K4E, T12M, A15G, P16S, V23A, R25G, S56G
VL: B1 VL with Q2A, G3V, G51K, S96Y
B18: SC-H10 (Fab) (Fab, V domains shown)
VH: B1 VH with T2S, V3L, K4E, S55I
VL: B1 VL with K64S
B19: BC-B10 (Fab) (Fab, V domains shown)
VH: B1 VH with T2S, K4E, G54V, S55I, D78E, L115S
VL: B1 VL with Q2I, G3K, L4M, R94I, S97R, A101S
B20: BC-B8 (Fab) (Fab, V domains shown)
VH: B1 VH with T2S, V3L, K4E, A15T, R25G, S29Y, S30T, T34G, S55I
VL: B1 VL with S26G, P41A
B21: BC-D3 (Fab) (Fab, V domains shown)
VH: B1 VH with T2S, V3L, K4E, A15T, R25G, S29Y, S30T, T34G, S55I
VL: B1 VL with S26G, P41A
B22: BC-E2 (Fab) (Fab, V domains shown)
VH: QEQLKESGGRLVTPGAPLTLTCTVSRFSLSSYAMTWVRQAPGKGLEWIGIINNDGISSTWYASWVKGRFTISKTSTTMDLKMTSLTTEDTATYFCARGGTSGYDIWGPGTLVTVSL
VL: B1 VL with Q2V, G3V, G51K
B23: SC-B2 (Fab) (Fab, V domains shown)
VH: B22 VH with K5M, G8R, A16G, P17S, S31N
VL: B1 VL with L4P, S97G
B24: BC-F4 (Fab) (Fab, V domains shown)
VH: B1 VH with T2S, K4E, G7R, A15G, P16S, S30N, S55I
VL: B1 VL with G3V
B25: BC-H9 (Fab) (Fab, V domains shown)
VH: B1 VH with T2S, V3L, K4E, A15T, R25G, S29Y, S30T, T34G, S55I
VL: B1 VL with S26G, P41A
B26: SC-B6 (Fab) (Fab, V domains shown)
VH: B1 VH with T2S, R25G, S29N, S30N, S55I, T69I, M77V
VL: B1 VL with L4P, G67R, R94I, S97R, A101S
B27: SC-D1 (Fab) (Fab, V domains shown)
VH: B1 VH with T2S, V3L, K4E, G7R, A15G, P16S, R25G, S55V
VL: B1 VL with A1D, Q2P, G3M, L4M, D78G
B28: SC-F8 (Fab) (Fab, V domains shown)
VH: B1 VH with A15G, P16S, S30N, S55I
VL: B1 VL with G3V

These binders were tested against AQP3 on AQP3 expressing CHO cells (species not stated) (assay: FACS on AQP3 expressing CHO cells, Fab).

Binder | binding
B1 | binds
B2 | binds
B3 | binds
B4 | binds
B5 | binds
B6 | binds
B7 | binds
B8 | binds
B9 | binds
B10 | binds
B11 | binds
B12 | binds
B13 | binds
B14 | binds
B15 | binds
B16 | binds
B17 | binds
B18 | binds
B19 | binds
B20 | binds
B21 | binds
B22 | binds
B23 | binds
B24 | binds
B25 | binds
B26 | binds
B27 | binds
B28 | binds

Substitutions are numbered along the chain they refer to. No constants are given. Whether binding was seen depends on the method and setting. Binding can be weak; no strength is given.
